Measurements: publication PMC11796410
These are yes or no findings as the source states them, for the method shown. Binding seen in cells or lysates may run through a third protein. These calls come from enrichment with a bait or labelling near it, and not all partners need be listed.

The chains behind the UniProt entries cited, without tags or fusion partners.
UniProt Q5AGW7: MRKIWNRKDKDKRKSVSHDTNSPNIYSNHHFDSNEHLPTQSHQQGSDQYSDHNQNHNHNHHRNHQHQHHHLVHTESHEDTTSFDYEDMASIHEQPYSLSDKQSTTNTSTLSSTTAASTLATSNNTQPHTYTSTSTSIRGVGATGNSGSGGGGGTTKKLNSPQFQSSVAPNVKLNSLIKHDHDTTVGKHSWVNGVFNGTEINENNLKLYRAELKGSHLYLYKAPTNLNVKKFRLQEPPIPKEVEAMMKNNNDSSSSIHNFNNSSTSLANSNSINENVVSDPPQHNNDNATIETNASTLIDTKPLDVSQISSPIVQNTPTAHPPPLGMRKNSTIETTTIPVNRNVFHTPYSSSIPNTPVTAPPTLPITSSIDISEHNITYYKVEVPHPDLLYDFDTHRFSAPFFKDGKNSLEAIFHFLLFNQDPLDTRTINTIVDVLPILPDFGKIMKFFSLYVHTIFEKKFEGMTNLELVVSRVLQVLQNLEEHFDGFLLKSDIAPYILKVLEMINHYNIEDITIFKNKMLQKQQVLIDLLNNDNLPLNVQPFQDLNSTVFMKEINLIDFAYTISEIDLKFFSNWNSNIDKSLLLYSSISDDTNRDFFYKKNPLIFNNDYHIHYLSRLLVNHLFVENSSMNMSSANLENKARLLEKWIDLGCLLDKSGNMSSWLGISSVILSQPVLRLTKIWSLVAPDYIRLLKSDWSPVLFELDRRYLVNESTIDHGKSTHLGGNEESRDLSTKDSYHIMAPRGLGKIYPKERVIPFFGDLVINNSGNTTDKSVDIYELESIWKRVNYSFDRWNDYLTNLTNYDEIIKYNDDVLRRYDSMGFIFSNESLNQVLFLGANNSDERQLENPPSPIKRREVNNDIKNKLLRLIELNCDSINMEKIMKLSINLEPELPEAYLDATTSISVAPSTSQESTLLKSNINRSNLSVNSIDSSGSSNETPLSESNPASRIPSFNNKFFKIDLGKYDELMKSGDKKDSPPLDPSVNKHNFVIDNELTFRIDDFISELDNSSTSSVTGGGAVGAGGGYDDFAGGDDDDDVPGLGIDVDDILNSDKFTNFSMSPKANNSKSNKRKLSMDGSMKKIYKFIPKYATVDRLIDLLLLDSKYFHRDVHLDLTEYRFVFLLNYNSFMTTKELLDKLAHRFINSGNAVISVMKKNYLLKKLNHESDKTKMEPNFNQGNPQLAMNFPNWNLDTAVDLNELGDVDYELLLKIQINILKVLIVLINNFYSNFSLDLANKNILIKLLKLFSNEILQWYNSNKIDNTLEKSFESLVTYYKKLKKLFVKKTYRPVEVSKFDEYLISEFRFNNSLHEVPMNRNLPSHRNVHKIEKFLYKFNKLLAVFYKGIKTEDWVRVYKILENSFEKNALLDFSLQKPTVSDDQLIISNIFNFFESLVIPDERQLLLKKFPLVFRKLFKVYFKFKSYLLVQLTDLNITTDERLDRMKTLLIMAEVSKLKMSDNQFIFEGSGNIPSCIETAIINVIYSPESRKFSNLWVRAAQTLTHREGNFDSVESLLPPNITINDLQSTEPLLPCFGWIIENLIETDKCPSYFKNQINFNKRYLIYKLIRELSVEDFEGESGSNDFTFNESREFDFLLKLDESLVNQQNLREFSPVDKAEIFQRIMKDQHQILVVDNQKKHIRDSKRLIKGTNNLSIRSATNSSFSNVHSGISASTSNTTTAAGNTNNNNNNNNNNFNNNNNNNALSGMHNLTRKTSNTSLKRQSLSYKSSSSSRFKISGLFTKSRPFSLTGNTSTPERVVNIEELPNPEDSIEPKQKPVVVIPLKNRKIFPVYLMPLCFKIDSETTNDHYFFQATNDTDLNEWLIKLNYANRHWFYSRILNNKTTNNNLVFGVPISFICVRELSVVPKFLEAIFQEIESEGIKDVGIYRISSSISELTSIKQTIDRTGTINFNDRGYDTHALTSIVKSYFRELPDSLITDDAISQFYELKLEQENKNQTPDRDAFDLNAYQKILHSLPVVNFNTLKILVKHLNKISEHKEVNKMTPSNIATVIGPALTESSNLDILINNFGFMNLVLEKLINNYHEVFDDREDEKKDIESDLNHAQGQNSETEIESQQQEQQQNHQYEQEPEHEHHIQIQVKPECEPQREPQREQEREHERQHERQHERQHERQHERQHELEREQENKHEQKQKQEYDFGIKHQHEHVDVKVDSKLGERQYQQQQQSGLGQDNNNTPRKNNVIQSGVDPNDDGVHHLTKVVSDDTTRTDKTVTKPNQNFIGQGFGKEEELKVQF

Target: Myc-Sdd3 (C. albicans) (UniProt Q59R27)
Assay: affinity purification with mass spectrometry

Bem2 (from UniProt Q5AGW7 1-2252)
binding: binds
